Reference: patent publication US7816347B2, “Pharmaceutical compositions comprising NEP-inhibitors, inhibitors of the endogenous endothelin producing system and HMG CoA reductase inhibitors” (Solvay Pharmaceuticals GmbH, priority 2004, dated 2010)
At least one compound was matched to its structure with a doubt left.

System: spontaneously hypertensive rat
Experiment: Telemetric blood pressure and heart rate in SHR; daglutril, simvastatin or simvastatin+daglutril via drinking water
Assay type: in vivo
Protocol: In a first experiment, after 3 days of monitoring under baseline (untreated) conditions, animals received daglutril via the drinking water. The intended daily dose was 100 mg/kg/day of daglutril. The concentration in drinking water was adjusted once per week, resulting in an average drug intake of 98 mg/kg/day.
Concentrations of simvastatin and daglutril in the drinking water were adjusted once per week, in order to ensure the intended daily intake of 40 and 100 mg/kg, respectively. The average daily water intake amounted to 33 and 36 ml/kg in the simvastatin and simvastatin+daglutril group, respectively, resulting in the uptake of 36 mg/kg/day of simvastatin in the simvastatin group, and 37 mg/kg/day of simvastatin and 93 mg/kg/day of daglutril in the combination group.
These 24 h means were exported to Excel®, and group mean values of systolic (SBP), diastolic blood pressure (DBP), heart rate (HR), and locomotor activity (ACT) were calculated daily. For the statistical analysis, the effects of simvastatin and simvastatin+daglutril were calculated by subtracting the baseline value (pre) measured on the last day prior to compound application (day 3) from that value measured on day 23 (i.e. on the penultimate day of the treatment period) for each animal. The statistical comparison was done by using univariate ANOVA at an error level of P<0.05.

In the case of CCC(C)(C)C(=O)O[C@H]1C[C@@H](C)C=C2C=C[C@H](C)[C@H](CC[C@@H]3C[C@@H](O)CC(=O)O3)[C@H]21 [Simvastatin, simvastatin], the “Effect on blood pressure (in words)” value is reported as “slight increase in blood pressure”.
